The results in this text go back to patent US20240343794A1 (UNITED KINGDOM RESEARCH AND INNOVATION, published 2024).

Amino acid sequences for entries named in this document (tags omitted). Residues count along the entry.
UniProt Q9JIP3, residues 18-499: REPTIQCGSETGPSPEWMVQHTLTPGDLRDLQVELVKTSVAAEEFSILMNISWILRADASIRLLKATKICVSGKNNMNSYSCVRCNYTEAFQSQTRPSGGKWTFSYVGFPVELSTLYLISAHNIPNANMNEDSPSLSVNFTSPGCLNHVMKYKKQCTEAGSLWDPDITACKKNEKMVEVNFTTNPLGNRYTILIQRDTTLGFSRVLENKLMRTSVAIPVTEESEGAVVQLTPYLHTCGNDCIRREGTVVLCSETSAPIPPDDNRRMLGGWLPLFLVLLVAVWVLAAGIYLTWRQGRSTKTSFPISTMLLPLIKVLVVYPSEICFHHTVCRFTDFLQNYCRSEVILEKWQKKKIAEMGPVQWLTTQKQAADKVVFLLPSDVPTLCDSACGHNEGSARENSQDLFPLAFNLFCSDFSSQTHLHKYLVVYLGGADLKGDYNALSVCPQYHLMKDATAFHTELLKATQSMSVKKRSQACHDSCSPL

Results are given in words; binding and its absence hold for the method and conditions named. Some results given as binding are weak or reduced against the parent protein; the word gives no strength.

Assay [1] addresses mouse IL-25R (IL-17BR) on ILC2s from Apc1322T/+ mouse tumours and adjacent lamina propria (mouse) (UniProt Q9JIP3). Kind of assay: Flow cytometry of ILC2s from paired tumours and adjacent lamina propria of Apc1322T/+ mice, stained with D9.2-AF647. Readouts are percent positive cells and geometric mean fluorescence relative to isotype control. [cont) j].
Assay [2] has the same target. Kind of assay: Flow cytometry of ILC2s from Apc1322T/+ mouse tumour and adjacent lamina propria, stained with D9.2-AF647 (x axis) against ST2-AF488 (y axis). [cont) i].

B1: anti-IL25R monoclonal antibody (clone D9.2) (antibody, V domains shown)
VH: QVQLQQPGAELVRPGASVKLSCKTSGYTFISYWMNWVKQGPEQGLEWIGRIDPYDSEIQYNQKFKDKAILTVDKSSSAAYMQLISLTSEDSAVYYCARSGGFDWFAYWGQGTLVTVSA
VL: DIQMTQSPASLSVSVGETVTITCRASENINSNLAWYQQKKGKSPQLLVYDVTNLADGVPSRFSGSGSGTQYSLKINSLQSEDFGSYYCQHFWRPPYTFGGGTNLEIK
notes: Murine antibody; also called IL17BR (D9.2, AF647); IL17BR (D9.2, biotin)
Regarding B1, the binding result in assay [1] and in assay [2] was “binds” in each case.
